This note sets out measurements from PubChem BioAssay AID493014 (National Center for Advancing Translational Sciences (NCATS), 2011).

This assay in a line: qHTS Assay to Find Inhibitors of Chronic Active B-Cell Receptor Signaling. The conditions noted are these: ABC-DLBCL IkBa-CBG/CBR reporter, luminescence ratio (green luciferase fused to IkBa over red control in TMD8 lymphoma cells), 4 h. The method in brief:
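TMD8 human ABC-DLBCL cells with doxycycline-inducible IκBα–green luciferase fusion and unfused red luciferase, in 0.5% FBS medium; compounds up to 46 uM, 4 h at 37C. Green/red luminescence ratio, filter-overlap corrected, fitted to concentration-response curves.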
In general terms: Quantitative high-throughput screening tests each substance at several concentrations.

The mark [1] stands for this setting: measured here: CBR red luminescence, cell number.
[2] abbreviates: measured here: IkBa-CBG green luminescence.

The list shows a part of the results. These are further read-outs of the screen, such as a control signal, another cell line or another target. No call is given for them. Compounds called inactive in the main read-out are mostly missing here. Potencies come from curve fits of mixed quality, noted in brackets.

As a reminder, the AC50 is the concentration at which the activity in the assay is half-maximal. On to `CCC(C)Oc1nc2c(c(=O)n(C)c(=O)n2C)n1C` (configuration not stated), for which the AC50 under setting [1] is 0.501 µM [falling, full curve, poor fit]. Still for that read-out and setting: to `O=C(COc1cccc2ccccc12)N1CCN(c2ccccn2)CC1` belongs 4.11 µM [rising, full curve, poor fit]. As to `O=C(COc1ccccc1-c1ccccc1)N/N=C/c1ccc2ccccc2c1`, the AC50 reads like this: under setting [1], 2.06 µM [rising, full curve]; under setting [2], 1.16 µM [falling, full curve].

For the molecule `Cc1ccccc1-c1nc(C(=O)NCC2CCCO2)cc2c1[nH]c1ccccc12` (configuration not stated), the AC50 under setting [1] was 7.08 µM [falling, full curve]. Same read-out and setting: to `COc1ccc(S(=O)(=O)Nc2cccc(SC)c2)cc1C(=O)N1CCOCC1` belongs 35.5 µM [falling, single point]; to `COc1cccc2c(=O)c(C(=O)O)c[nH]c12`, 4.61 µM [falling, full curve].

Turning to `COc1ccc(C(O)c2nccc3cc(OC)c(OC)cc23)cc1OC` (configuration not stated), the AC50 under setting [1] is 10 µM [rising, partial curve, poor fit]. On the same count and under the same terms, to `O=C(COc1ccccc1C(=O)NCC1CCCO1)Nc1ccc(Br)cc1` (configuration not stated) belongs 15.8 µM [falling, partial curve, poor fit]. The same measure, in the same setting: to `CC(C)(C)c1cc(C(=O)NCc2cc(F)cc3c2OCOC3)n(Cc2ccccc2)n1` belongs 25.1 µM [rising, single point]; to `CCCCc1c(C)nc2nc(SCc3ccc(Cl)cc3)[nH]n2c1=O`, 1.78 µM [falling, full curve]; to `COc1ccc(CNC(=O)N2CCc3ccccc3C2)cc1Cl`, 15.8 µM [falling, single point]. On to `CC[C@@H](C)[C@@H]1CN([C@@H](CN2CCC[C@H]2CN2C(N)=NC[C@H]2C(C)C)C(C)C)C(=N)N1CCCC1CCCC1`, for which the AC50 under setting [1] was 29.1 µM [rising, partial curve, poor fit]. On the same count and under the same terms, in the case of `CCCOC(=O)CSc1nnc(-c2ccccc2)o1` it was 25.1 µM [rising, single point]. Regarding `CCOC(=O)C(=Cc1ccccc1OC)C(=O)OCC`, the AC50 runs as follows: under setting [1], 7.08 µM [falling, full curve]; under setting [2], 10 µM [rising, partial curve, poor fit]. Consider `O=C(N/N=C1\CCCCc2ccccc21)c1ccccn1`, for which, under setting [1], the AC50 is 35.5 µM [falling, partial curve, poor fit].

Consider `CSc1cccc(NC(=O)C2CCCN(S(=O)(=O)c3cccs3)C2)c1` (configuration not stated), for which, under setting [1], the AC50 is 8.91 µM [falling, partial curve].

Regarding `COc1cc(/C=N/NC(=O)CCn2c3ccccc3c3ccccc32)ccc1O`, the AC50 under setting [1] was 18.4 µM [falling, partial curve, poor fit].

As to `O=C(CNc1ccc(Br)cc1)Nc1ccc(S(=O)(=O)N2CCCC2)cc1`, under setting [1], the AC50 was 6.51 µM [rising, single point]. Still for that read-out and setting: to `COC(=O)C1=C(C)N(CCc2ccccc2)C(=O)/C1=C\c1ccco1` belongs 32.6 µM [falling, partial curve, poor fit]. For `COc1ccc(/C(C)=N/Nc2nc3ccccc3nc2C)cc1OC`, under setting [2], the AC50 is 15.8 µM [falling, partial curve]. As to `Oc1ccc(/C=N/N(Cc2ccccc2)c2ccccc2)cc1`, the AC50 under setting [1] is 22.4 µM [falling, single point]. Still for that read-out and setting: to `Nc1c(N=Nc2cccc(Cl)c2)c(=O)[nH]n1-c1ccccc1` belongs 1.58 µM [falling, partial curve]; to `Nc1cc(N)cc(-c2nc3ccccc3[nH]2)c1`, 2.31 µM [rising, partial curve, poor fit]; to `O=C(Nc1ccc(Br)cc1)Nc1ccccc1Cl`, 3.55 µM [falling, partial curve, poor fit]. Same read-out and setting: in the case of `Cc1cc(NC(=O)C2CCCCC2)ccc1NC(=O)c1ccccc1Cl` it was 29.1 µM [rising, single point]; in that of `O=C(O)CCCCCn1c(O)c(C=C2N=c3ccccc3=N2)sc1=S`, 0.461 µM [falling, full curve]. Same read-out and setting: in the case of `O=C(c1cc(-c2ccc(F)cc2)on1)N1CCN(c2ccc(F)cc2)CC1` it was 5.62 µM [falling, full curve]; in that of `COc1ccc(C2CN=NC23CCCc2ccccc2C3=O)cc1` (configuration not stated), 2.24 µM [rising, partial curve]. `Cc1cc(C(=O)OCC(=O)N2CC(C)OC(C)C2)c2ccccc2n1` (configuration not stated): the AC50 under setting [1] was 0.103 µM [rising, full curve, poor fit]. Take `N#Cc1cccc(S(=O)(=O)NCC(=O)OCC(=O)c2ccc[nH]2)c1`: under setting [1], the AC50 is 20 µM [rising, partial curve, poor fit].

Regarding `Cc1ccc(/C=C/C(=O)N2CC(=O)Nc3ccccc32)o1`, under setting [1], the AC50 was 35.5 µM [falling, single point].

Consider `O=C(CSc1nnc2c(n1)[nH]c1ccccc12)Nc1ccc(S(=O)(=O)Nc2ncccn2)cc1`, for which the AC50 under setting [1] is 35.5 µM [falling, single point].

For `COCCCNC(=S)N(CCO)Cc1cc2cc3c(cc2[nH]c1=O)OCCO3`, under setting [1], the AC50 was 17.8 µM [rising, single point]. The same measure, in the same setting: to `Cc1nnc(SCC(=O)N2CCCCC2)n1CC1CCCO1` (configuration not stated) belongs 23.1 µM [rising, single point].

As to `CCOC(=O)c1c(N)n(-c2ccc(OCC)cc2)c2nc3ccccc3nc12`, the AC50 under setting [1] is 2.51 µM [rising, single point].

With `O=c1[nH]cnc2c1N=C(c1cccc([N+](=O)[O-])c1)CC(c1ccccc1)N2` (configuration not stated), the AC50 under setting [1] is 11.2 µM [rising, partial curve]. The same measure, in the same setting: to `CNC[C@@H]1Oc2ccc(NS(=O)(=O)c3ccc(OC)cc3)cc2CC(=O)N([C@H](C)CO)C[C@@H]1C` belongs 0.184 µM [rising, full curve, poor fit]; to `CN1CCN(CCCNC(=O)c2ccc(/C=C3\Sc4ccccc4N(Cc4ccccc4F)C3=O)cc2)CC1`, 35.5 µM [falling, single point].

In the case of `CCCC(C)c1nnc(NC(=O)CCS(=O)(=O)c2ccccc2)s1` (configuration not stated), the AC50 under setting [1] is 7.94 µM [falling, partial curve]. For the molecule `N#CCSc1nc2c(c(C3CC=CCC3)c1C#N)CCC2` (configuration not stated), under setting [1], the AC50 is 0.731 µM [rising, full curve, poor fit].

In the case of `O=C(c1n[nH]c2c1CCCC2)n1ccnc1`, the AC50 under setting [1] is 32.6 µM [falling, single point]. For `Cc1cccc2nc(CSc3nc4ccc([N+](=O)[O-])cc4[nH]3)c(Br)n12`, the AC50 under setting [1] is 2.06 µM [rising, partial curve].

On to `COc1cc(C2Nc3cc(Cl)c(S(N)(=O)=O)cc3S(=O)(=O)N2)ccc1OCc1ccccc1` (configuration not stated), for which the AC50 under setting [1] is 14.6 µM [falling, single point].

Consider `COc1ccccc1-c1nnc(NC(=O)c2cccc(N3C(=O)CCC3=O)c2)o1`, for which, under setting [1], the AC50 is 7.31 µM [falling, partial curve]. Consider `O=C(Cn1ncc2ccccc21)N1CCc2ccccc21`, for which the AC50 under setting [1] was 5.8 µM [rising, partial curve, poor fit]. The same measure, in the same setting: to `COc1ccc(C(=O)Nn2c(SCC(=O)NCc3ccccc3)nc3ccccc3c2=O)cc1` belongs 2.31 µM [falling, full curve]. The same measure, in the same setting: in the case of `COC(=O)c1ccccc1NC(=O)Cn1cnc2cc(C)c(C)cc21` it was 35.5 µM [falling, single point]; in that of `CCOC(=O)c1nn(-c2ccccc2)cc1O`, 0.631 µM [falling, full curve, poor fit]; in that of `Cc1cccc(C(=O)n2c(=S)nc3cc(C)ccn32)c1`, 1.78 µM [falling, full curve, poor fit]. `CCS(=O)(=O)N1CCc2nc(-c3ccccc3)sc2C1`: under setting [1], the AC50 was 15.8 µM [falling, single point]. Same read-out and setting: in the case of `COc1ccc(-c2nc3cnccn3c2NC2CCCCC2)cc1-c1cccc(Cl)c1` it was 1.64 µM [rising, partial curve]. Same read-out and setting: to `CSc1nnc2c(n1)OC(c1ccsc1)N(C(C)=O)c1ccccc1-2` (configuration not stated) belongs 29.1 µM [falling, single point]. On the same count and under the same terms, to `COc1ccc(NC(=O)C2CCC(N3C(=O)C4C5C=CC(C5)C4C3=O)CC2)cc1` (configuration not stated) belongs 1.3 µM [rising, full curve, poor fit]; to `Cc1cc(C)cc(NC(=O)CCC(=O)Nc2nnc(C(F)(F)F)s2)c1`, 3.98 µM [rising, full curve, poor fit]. On to `CCN(CC)C(=O)CSc1nc2c(sc(=S)n2Cc2ccco2)c(=O)n1-c1ccccc1`, for which the AC50 under setting [1] is 12.6 µM [falling, single point].

With `Cc1cc(C(=O)N/N=C/C(Cl)=C/c2ccccc2)c(C)o1`, under setting [1], the AC50 is 12.6 µM [falling, partial curve]. On the same count and under the same terms, to `CCOc1cccc2sc(N3CCN(C(=O)c4ccco4)CC3)nc12` belongs 2 µM [rising, full curve, poor fit]; to `CC(=O)OCCN(C)c1cc(SC(C)C)c2nonc2c1[N+](=O)[O-]`, 12.6 µM [falling, partial curve, poor fit]. Same read-out and setting: to `Cc1ccc2nc(-c3ccc4c(c3)OCCO4)cn2c1` belongs 35.5 µM [falling, single point]; to `COc1ccc(-c2coc3cc(O)cc(O)c3c2=O)cc1`, 6.51 µM [rising, partial curve].

Turning to `CC(=O)N(C)c1ccc(N=Cc2c(O)ccc3ccccc23)cc1`, the AC50 under setting [1] is 35.5 µM [falling, single point].

In the case of `C=CCN(c1ccccc1OC)S(=O)(=O)c1cccc(C(=O)NC2=NCCS2)c1`, the AC50 under setting [1] was 2.91 µM [falling, partial curve]. For the molecule `O=C(COc1ccccc1-c1ccccc1)NN=C1CCCC1`, the AC50 is 1.58 µM [rising, full curve, poor fit] under setting [1] and 2.51 µM [falling, full curve] under setting [2]. With `COc1ccc(C(=O)c2oc3ccc(Br)cc3c2NC(C)=O)cc1`, the AC50 under setting [1] is 0.517 µM [rising, full curve, poor fit].
